The text below walks through data of the supplement of paper PMC7024190.

Some of the results follow. Single values are uncertain here, since repeats match poorly.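 The cells were human embryonic kidney cells carrying a Renilla luciferase gene, driven by the HSV-TK promoter, on a plasmid put in briefly by transfection. This is the first-round screen of about ten thousand compounds, looking for ones that raise reporter output.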

Holding throughout (assay): log relative Renilla luciferase luminescence (reporter expression vs reference, reference not stated) (log (base not stated)); higher = higher recombinant reporter expression
Common to all, as to conditions: 10 µM; time after transfection 48 h

For test [1], the system named is HEK 293FT. As for the experimental part: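 HEK 293FT cells transiently transfected with pRL-TK (Renilla luciferase) were treated with compounds at 10 uM and luminescence was read about 42 h later. Values are log relative Renilla luminescence (log base and reference not stated). Single-pass screen; ICCB Known Bioactives library.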
Test [2] deals with HEK 293FT. This is another data set of the same source.
For test [3], the system named is HEK 293FT. This is another data set of the same source.
Test [4] relates to HEK 293FT. As for the experimental part: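 HEK 293FT cells transiently transfected with pRL-TK (Renilla luciferase) were treated with compounds at 10 uM and luminescence was read about 42 h later. Values are log relative Renilla luminescence (log base and reference not stated). Single-pass screen; 2080 natural products library.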
This is another data set of the same source.

The subject of test [5] is HEK 293FT. The source holds these as a separate data set.

On to `O=C(O)c1cc(N(Cc2ccccc2O)Cc2cc(O)ccc2O)ccc1O` [Lavendustin A], for which, in the test on HEK 293FT [1], the log turned out to be 0.32. Turning to `CCCCCC(O)c1cccc(OCc2ccc3ccccc3n2)c1` (centres undefined), the log with HEK 293FT [1] was 0.1. With `NC1=NC2C(N=C(Br)N2C2O[C@H]3COP(=O)(O)O[C@@H]3[C@@H]2O)C(=O)N1` (some centres undefined) [Bromo-cGMP [8-Bromo-cGMP]], in the test on HEK 293FT [1], the log was -0.12. On to `COC(=O)Nc1nc2cc(C(=O)c3cccs3)ccc2[nH]1` [Nocodazole], for which the figures for the log in the test on HEK 293FT [1] and in the test on HEK 293FT [2] were -0.625 and -0.0863, respectively. Consider `COc1cccc(-c2cc(=O)c3ccccc3o2)c1N`, for which the values for the log with HEK 293FT [1] and with HEK 293FT [2] were 0.0989 and 0.131, respectively. As for `CCCCCC(O)C=CC1C(O)CC(O)C1CC=CCCCC(=O)O` (stereo not drawn) [8-EPI-prostaglandin F2a], the log in the test on HEK 293FT [1] is -0.335.

For `CCOC(=O)C1=C(N)Oc2ccc(Br)cc2C1C(C#N)C(=O)OCC` (centres undefined), the figures for the log with HEK 293FT [1] and with HEK 293FT [2] were 0.0421 and -0.0404, respectively.

Turning to `COC(=O)c1c(C)[nH]c(C)c1C(=O)c1ccccc1Cc1ccccc1`, the log in the test with HEK 293FT [1] was -0.0542; in the test with HEK 293FT [2] it was 0.0637.

As to `COc1ccc2c(c1)c(CC(=O)N1CCOCC1)c(C)n2C(=O)c1ccc(Cl)cc1`, the log was found to be 0.239 in the test on HEK 293FT [1] and 0.0448 in the test with HEK 293FT [2]. Taken in the same sequence, the figures for `CC(O)(C(=O)Nc1ccc(S(=O)(=O)c2ccccc2)cc1)C(F)(F)F` (centres undefined) were -0.812 and -0.0416. On to `Oc1cc2c(cc1O)CN(C(=S)NCCc1ccc(Cl)cc1)CCC2` [Capsazepine], for which the log is -1.31 with HEK 293FT [1] and 0.123 in the test on HEK 293FT [2].

On to `CCC(C)[C@H](NC(=O)[C@H](CCCCN)NC(=O)[C@H](CCCCN)NC(=O)[C@H](C)NC(=O)[C@H](CC(C)C)NC(=O)[C@H](C)NC(=O)[C@H](C)NC(=O)[C@H](CC(C)C)NC(=O)[C@H](C)NC(=O)[C@H](CCCCN)NC(=O)[C@H](CC(C)C)NC(=O)[C@H](CC(N)=O)NC(=O)[C@@H](N)[C@@H](C)CC)C(=O)N[C@@H](CC(C)C)C(N)=O` (some centres undefined) [Mastoparan], for which the log in the test on HEK 293FT [1] was determined as 0.339. In the case of `CCOC(=O)C1=C(C)NC(=S)NC1c1cccc(O)c1` (centres undefined) [Monastrol], the log in the test on HEK 293FT [1] is 0.342; with HEK 293FT [3], 0.0735; in the test on HEK 293FT [2], -0.0369. For `CCCCCCCC/C=C\C/C=C\C/C=C\CCCC(=O)NCCO` [Mead ethanolamide], the log with HEK 293FT [1] is -0.174. Consider `Clc1ccc(-c2nc3sccn3c2/C=N/OCc2ccc(Cl)c(Cl)c2)cc1`, for which the figures for the log with HEK 293FT [1] and in the test with HEK 293FT [2] were -0.0621 and -0.0358, respectively. With `C=C1C(=O)O[C@H]2[C@H]1CC/C(C)=C/CC[C@@]1(C)O[C@@H]21` [Parthenolide], the log in the test with HEK 293FT [1] was -1.14; in the test with HEK 293FT [4], -0.596; in the test on HEK 293FT [2] it was 0.155. Take `CCCCCCCCCCCCCCC[C@@H](O)[C@@H](N)CO` [Dihydrosphingosine]: the log in the test on HEK 293FT [1] is -0.0844. Turning to `CN1C(C(=O)Nc2ccccn2)=C(O)c2ccccc2S1(=O)=O` [Piroxicam], the log is -0.374 with HEK 293FT [1] and -0.044 in the test on HEK 293FT [5].

Consider `O=c1c(O)c(-c2ccc(O)c(O)c2)oc2cc(O)cc(O)c12` [Quercetin], for which the log with HEK 293FT [1] was -0.226; in the test with HEK 293FT [4], -0.0581.

Consider `COCCOC(=O)C1=C(C)NC(C)=C(C(=O)OC(C)C)C1c1cccc([N+](=O)[O-])c1` (centres undefined) [Nimodipine], for which the log was -0.0475 with HEK 293FT [1] and -0.0452 with HEK 293FT [2]. `O=c1[nH]c2ccccc2c2ccccc12` [Phenanthridinone [6(5H)-Phenanthridinone]]: the log with HEK 293FT [1] was -0.124. Take `OC[C@@H]1NC[C@H](O)[C@H](O)[C@H]1O` [Deoxymannojirimycin(1)]: the log in the test with HEK 293FT [1] came out at 0.288.

As for `CCCCC/C=C\CC1OC1C/C=C\C/C=C\CCCC(=O)O` (centres undefined) [11,12-Epoxyeicosatrienoic acid], the log in the test on HEK 293FT [1] was 0.339. The same measure, in the same setting: for `CC(C)(Oc1ccc(CCNC(=O)c2ccc(Cl)cc2)cc1)C(=O)O` [Bezafibrate] the value was -0.433.

On to `COC(=O)C1=C(C)NC(C)=C(C(=O)OCCSc2ccccc2)C1C` (centres undefined), for which the results for the log with HEK 293FT [1], in the test with HEK 293FT [3] and with HEK 293FT [2] were -0.36, 0.118 and 0.00743, respectively.

As to `Cc1ccc(NC(=O)c2cccc(N(C)C)c2)cc1NC(=O)c1ccc(O)cc1`, the log in the test on HEK 293FT [1] is -0.303; in the test with HEK 293FT [2] it was -0.085.

Turning to `CC1=C(/C=C/C(C)=C/C=C/C(C)=C/C(=O)O)C(C)(C)CCC1` [Retinoic acid, all trans], the log in the test on HEK 293FT [1] is -0.305. For `O=C(O)CN1C(=O)c2cccc3cccc(c23)C1=O` [Alrestatin], the log in the test with HEK 293FT [1] was -0.0571; with HEK 293FT [2], 0.118.

In the case of `CN(C)c1ccc(/C=C2/C(=O)Nc3ccccc32)cc1`, the log with HEK 293FT [1] was -0.479; in the test with HEK 293FT [2], -0.36. Turning to `C=C(C)[C@@H]1CC[C@]2(C(=O)O)CC[C@]3(C)[C@H](CC[C@@H]4[C@@]5(C)CC[C@H](O)C(C)(C)[C@@H]5CC[C@]43C)[C@@H]12` [Betulinic acid], the figures for the log with HEK 293FT [1] and in the test on HEK 293FT [4] were -0.186 and -0.0729, respectively. Consider `COc1cc([C@@H]2c3cc4c(cc3[C@@H](O[C@@H]3O[C@@H]5CO[C@@H](C)O[C@H]5[C@H](O)[C@H]3O)[C@H]3COC(=O)[C@H]23)OCO4)cc(OC)c1O` [Etoposide], for which the log was -0.384 with HEK 293FT [1], -0.77 with HEK 293FT [5] and -0.795 in the test on HEK 293FT [2]. Consider `CCCCC/C=C\C/C=C\C/C=C\C=C\[C@@H](O)CCCC(=O)O`, for which, in the test on HEK 293FT [1], the log worked out at 0.0772. In the case of `COc1cc(CNC(=O)CCCC/C=C/C(C)C)ccc1O` [Capsacin(E)], the log in the test with HEK 293FT [1] was -0.391. In the case of `Cc1ccc(S(=O)(=O)/C=C/C#N)cc1`, the log in the test with HEK 293FT [1] turned out to be 0.378; in the test on HEK 293FT [2] it was 0.0127. `O=C(Nc1ccccc1)c1cc([N+](=O)[O-])ccc1Cl`: the log in the test on HEK 293FT [1] is -0.78; in the test on HEK 293FT [2], 0.0598. In the case of `CN/C(=N\c1ccc(C2=NNC(=O)CC2C)cc1)NC#N` (centres undefined) [Siguazodan], the log in the test on HEK 293FT [1] was -0.534; in the test with HEK 293FT [2], 0.0525. Turning to `COC(=O)[C@@H]1[C@H]2C[C@H]3c4[nH]c5ccccc5c4CCN3C[C@@H]2CC[C@@H]1O` [Yohimbine], the log in the test on HEK 293FT [1] came to 0.0551.

For the molecule `Nc1ncnc2c1ncn2C1CCCO1` (centres undefined), the log in the test on HEK 293FT [1] is -0.108; in the test on HEK 293FT [2], 0.0207.

In the case of `OCCN(CCO)c1nc(N2CCCCC2)c2nc(N(CCO)CCO)nc(N3CCCCC3)c2n1` [Dipyridamole], the values for the log in the test with HEK 293FT [1] and in the test on HEK 293FT [2] were -0.495 and -0.102, respectively. As to `O[C@H]1[C@H]2c3cc4c(cc3CN3CCC(=C[C@@H]1O)[C@H]23)OCO4` [Lycorine], the log in the test on HEK 293FT [1] was -1.56.

Take `CC(=O)[C@H]1[C@H](C#N)C[C@H]2[C@@H]3CC=C4C[C@@H](O)CC[C@]4(C)[C@H]3CC[C@@]21C` [Pregnenolone 16a carbonitrile]: the log in the test on HEK 293FT [1] is -0.181.

As for `CCCCCCCC/C=C\CCCCCCCC(=O)OC[C@@H](O)COP(=O)(O)O` [Lysophosphatidic acid], in the test on HEK 293FT [1], the log is -0.307. Turning to `CN(C)CCCn1cc(C2=C(c3c[nH]c4ccccc34)C(=O)NC2=O)c2ccccc21`, the log was -0.905 in the test with HEK 293FT [1] and 0.0637 with HEK 293FT [2]. Take `CCCOc1ccc2nc(NC(=O)OC)sc2c1` [Tioxidazole]: in the test on HEK 293FT [3], the log came out at 0.0367. Take `Nc1cccc2c(=O)[nH][nH]c(=O)c12` [Luminol]: the log with HEK 293FT [3] is -0.0538.
